Drawing on US20160024213A1 (VIB VZW, published 2016), this text covers binding for 2 molecules.

Experiment [1] addresses T1, Recombinant human MMR (R&D Systems) (human, UniProt P22897 19-1383).
T1 construct: Bought from R&D Systems; also called hMMR; recombinant hMMR
T1 sequence: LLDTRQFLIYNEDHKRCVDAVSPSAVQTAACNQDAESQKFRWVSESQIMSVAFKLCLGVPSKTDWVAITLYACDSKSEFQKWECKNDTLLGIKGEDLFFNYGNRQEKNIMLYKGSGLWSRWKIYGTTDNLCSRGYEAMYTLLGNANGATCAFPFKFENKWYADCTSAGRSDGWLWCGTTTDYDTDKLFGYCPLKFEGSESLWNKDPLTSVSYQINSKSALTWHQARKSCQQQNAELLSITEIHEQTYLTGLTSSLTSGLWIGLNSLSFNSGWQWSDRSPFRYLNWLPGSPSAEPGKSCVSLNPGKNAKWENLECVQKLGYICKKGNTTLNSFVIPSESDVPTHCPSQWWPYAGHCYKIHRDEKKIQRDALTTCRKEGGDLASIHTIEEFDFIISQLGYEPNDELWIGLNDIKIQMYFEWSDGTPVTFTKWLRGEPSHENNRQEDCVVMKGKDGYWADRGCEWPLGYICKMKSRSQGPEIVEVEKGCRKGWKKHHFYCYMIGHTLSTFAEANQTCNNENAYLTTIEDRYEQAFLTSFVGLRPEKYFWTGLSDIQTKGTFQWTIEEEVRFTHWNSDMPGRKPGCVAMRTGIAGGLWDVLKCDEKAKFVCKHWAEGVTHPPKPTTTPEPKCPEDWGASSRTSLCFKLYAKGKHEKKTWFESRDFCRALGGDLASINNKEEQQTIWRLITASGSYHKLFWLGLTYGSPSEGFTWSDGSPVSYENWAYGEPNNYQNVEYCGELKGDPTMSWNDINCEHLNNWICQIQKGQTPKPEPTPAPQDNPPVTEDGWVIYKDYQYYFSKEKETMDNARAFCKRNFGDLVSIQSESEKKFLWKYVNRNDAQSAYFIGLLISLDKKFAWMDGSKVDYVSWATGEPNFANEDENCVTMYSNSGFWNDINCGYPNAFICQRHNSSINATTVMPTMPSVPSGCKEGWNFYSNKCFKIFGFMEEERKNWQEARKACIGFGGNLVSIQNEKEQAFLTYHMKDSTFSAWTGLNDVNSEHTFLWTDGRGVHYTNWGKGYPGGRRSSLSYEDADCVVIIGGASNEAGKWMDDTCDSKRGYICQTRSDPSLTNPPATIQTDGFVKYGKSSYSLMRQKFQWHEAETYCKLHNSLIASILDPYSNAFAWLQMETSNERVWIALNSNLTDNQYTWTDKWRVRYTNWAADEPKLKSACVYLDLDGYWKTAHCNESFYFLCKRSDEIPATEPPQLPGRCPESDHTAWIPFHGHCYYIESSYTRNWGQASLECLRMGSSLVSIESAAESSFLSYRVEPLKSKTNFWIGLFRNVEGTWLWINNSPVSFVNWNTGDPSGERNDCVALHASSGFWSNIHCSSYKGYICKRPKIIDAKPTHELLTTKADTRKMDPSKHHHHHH
In words: PE-ELISA, periplasmic extract on coated MMR (1 µg/ml), anti-HA detection.

Experiment [2] addresses T1, Recombinant human MMR (R&D Systems). In words: PE-ELISA: periplasmic extract on plate coated with 1 µg/ml human MMR, anti-HA and AP-conjugated anti-mouse detection, OD405; background = milk blocking proteins. On the technique in general: In an ELISA, binding on a coated surface is turned into a signal by an enzyme label.
In experiment [3] the target is T2, Human MMR (MRC1) expressed on cells (human) (UniProt P22897).
T2 sequence: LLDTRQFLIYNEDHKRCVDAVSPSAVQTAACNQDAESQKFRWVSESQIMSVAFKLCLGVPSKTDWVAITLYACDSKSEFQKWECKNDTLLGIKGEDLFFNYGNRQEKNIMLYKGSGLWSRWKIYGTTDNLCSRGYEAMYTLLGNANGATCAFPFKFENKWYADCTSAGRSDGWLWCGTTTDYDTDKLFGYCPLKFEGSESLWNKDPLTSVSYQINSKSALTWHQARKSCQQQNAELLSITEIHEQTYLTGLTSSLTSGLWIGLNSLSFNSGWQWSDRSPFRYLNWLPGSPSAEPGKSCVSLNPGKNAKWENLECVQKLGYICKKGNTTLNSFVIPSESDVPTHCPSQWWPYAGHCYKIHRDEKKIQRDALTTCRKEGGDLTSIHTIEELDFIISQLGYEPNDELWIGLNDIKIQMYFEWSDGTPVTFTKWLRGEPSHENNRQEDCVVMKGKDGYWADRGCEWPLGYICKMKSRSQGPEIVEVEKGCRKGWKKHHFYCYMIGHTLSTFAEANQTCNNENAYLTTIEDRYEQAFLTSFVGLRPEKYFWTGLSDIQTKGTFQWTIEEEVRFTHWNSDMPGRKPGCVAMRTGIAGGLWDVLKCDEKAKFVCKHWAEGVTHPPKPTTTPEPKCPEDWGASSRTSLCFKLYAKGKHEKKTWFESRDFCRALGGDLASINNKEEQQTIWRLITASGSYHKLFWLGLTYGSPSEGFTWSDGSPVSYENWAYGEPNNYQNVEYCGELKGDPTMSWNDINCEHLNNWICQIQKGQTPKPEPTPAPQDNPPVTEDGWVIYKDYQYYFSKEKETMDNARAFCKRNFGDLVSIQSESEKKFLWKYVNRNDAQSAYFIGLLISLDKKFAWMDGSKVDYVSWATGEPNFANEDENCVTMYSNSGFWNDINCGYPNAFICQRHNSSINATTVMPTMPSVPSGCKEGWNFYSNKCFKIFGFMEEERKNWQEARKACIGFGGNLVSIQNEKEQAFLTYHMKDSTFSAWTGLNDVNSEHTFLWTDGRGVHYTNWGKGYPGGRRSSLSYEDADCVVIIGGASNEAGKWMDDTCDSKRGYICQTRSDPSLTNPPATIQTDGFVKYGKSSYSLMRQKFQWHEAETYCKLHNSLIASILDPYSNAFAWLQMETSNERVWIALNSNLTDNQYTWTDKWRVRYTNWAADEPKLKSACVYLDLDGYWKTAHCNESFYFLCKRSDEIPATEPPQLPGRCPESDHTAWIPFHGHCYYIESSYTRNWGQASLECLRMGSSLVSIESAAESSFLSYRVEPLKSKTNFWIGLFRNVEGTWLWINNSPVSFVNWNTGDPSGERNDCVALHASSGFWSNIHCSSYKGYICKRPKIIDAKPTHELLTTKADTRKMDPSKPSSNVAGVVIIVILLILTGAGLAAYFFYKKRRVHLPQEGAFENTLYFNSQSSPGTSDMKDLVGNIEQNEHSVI
In words: flow cytometry on human immature dendritic cells. A general note: A flow cytometer gives signals particle by particle.

The target in experiment [4] is T2, Human MMR (MRC1) expressed on cells (human). The experiment in a line: flow cytometry on CD11c+ human immature monocyte-derived dendritic cells; Alexa Fluor 488 anti-HA detection.

No constants are given. Whether binding was seen depends on the method and setting. Some binding calls cover weakened binding; strength is not graded here.

B1: NbhMMRm15.43 (VHH)
VHH: QVQLQESGGTLVQPGGSLRLSCAASGSTFSINNMGWYRQAPGKQRELVAGITGGNTHYADSVKGRFTISRDNAKNTMYLQMNGLKPEDTAVYYCNANWGAYWGQGTQVTVSS
Take B1: the binding result in experiment [1] and in experiment [2] was “binds” throughout.

B2: Anti-MMR Nanobody clone 1 (VHH)
VHH: QVQLQESGGGLVQPGGSLRLSCAASGNIFSINAIGWYRQAPGKQRELVATITLSGSTNYADSVKGRFSISRDNAKNTVYLQMNSLKPEDTAVYYCNANTYSDSDVYGYWGQGTQVTVSS
notes: 99mTc-labelled at the His tail in the in vivo experiments; also called Anti-MMR Nb1; Nb MMR cl1
Regarding B2, the values for the binding entry in experiment [3] and in experiment [4] were “no binding” and “no binding (tested: 10 µg/ml)”, respectively.
